Patent US20220088024A1, “METHODS FOR TREATING CANCER USING TOZADENANT” (Biotie Therapies, Inc., priority 2018, published 2022)
Several values for one entry are separate records, joined by “and”; a condition that tells them apart may be missing. Identical values can stand only once. Further values from the same series stand in other lists.

Tested on: CT26 colon carcinoma tumor
Assay: Example 5: anti-tumor responses of SYN-115 in the CT26 tumor mouse model (tumor area, survival)
Type: in vivo, BALB/c mice
Method: The BALB/c mouse colon carcinoma cell line CT26 was cultured in RPMI supplemented with 10% FCS, GlutaMAX, and penicillin/streptomycin. Tumor cells are periodically verified to be Mycoplasma negative by the Victorian Infectious Diseases References Lab (Melbourne, VIC, Australia) by PCR analysis. 1×10^5 cells were resuspended in PBS and injected s.c. into BALB/c mice in a 100 μL volume. At day 7 tumors were measured and mice were randomized into distinct treatment groups to ensure that each group had tumors of similar size at the onset of treatment. Mice were treated i.p. at days 7, 11 and 15, with either isotype control (2A3; 200 μg/mouse) or anti-PD-1 mAb (RMP1-14, 200 μg/mouse) and where indicated, SYN-115 (Batch 71236AA002) at the indicated dose or vehicle control once-daily via oral gavage on days 7 to 20. To calculate a dose of SYN-115 mouse weight was estimated to be 20 g per mouse. Therefore, 100 mg/kg=2 mg per mouse in 200 μL, which is equivalent to 10 mg/ml. To make up 40 mL, 400 milligrams of SYN-115 was weighed and added into a Falcon tube, then 1 mL of Tween 80 added and mixed into a paste and then 39 mL of 1% Methyl Cellulose was added. The solution was vortexed and then left on a rotating mixer for at least 2 hours and maintained at 4° C. Tumor measurements were taken 2-3 times per week. Tumor sizes were determined by width * length and mice were culled when tumors reached the ethical limit of 150 mm^2.

COc1ccc(N2CCOCC2)c2sc(NC(=O)N3CCC(C)(O)CC3)nc12 [SYN-115, 4-hydroxy-4-methyl-piperidine-1-carboxylic acid (4-methoxy-7-morpholin-4-yl-benzothiazol-2-yl)-amide]
Raw Tumor Measurements (2A3 (200 μg/Mouse)+SYN-115 (30 mg/kg), Day 0): 7.82 and 12.24 and 13.63 and 7.59 and 9.18
Raw Tumor Measurements (2A3 (200 μg/Mouse)+SYN-115 (100 mg/kg), Day 4): 9.99 and 9.86 and 11.5 and 13.94 and 7.83 and 15.2 and 13.76
Raw Tumor Measurements (2A3 (200 μg/Mouse)+SYN-115 (100 mg/kg), Day 6): 14.57 and 13.12 and 15.68 and 14.4 and 13.2 and 16.38 and 20.58
Raw Tumor Measurements (2A3 (200 μg/Mouse)+SYN-115 (100 mg/kg), Day 8): 16.74 and 31.39 and 22.4 and 24.2 and 18.24 and 25.8 and 16.2
Raw Tumor Measurements (2A3 (200 μg/Mouse)+SYN-115 (100 mg/kg), Day 22): 141 and 138.6
Raw Tumor Measurements (2A3 (200 μg/Mouse)+SYN-115 (100 mg/kg), Day 34): 0
Raw Tumor Measurements (2A3 (200 μg/Mouse)+SYN-115 (100 mg/kg), Day 39): 0
Raw Tumor Measurements (2A3 (200 μg/Mouse)+SYN-115 (100 mg/kg), Day 41): 0
Raw Tumor Measurements (Anti-PD-1 (200 ug)+SYN-115 (30 mg/kg), Day 0): 11.2 and 7.28 and 14.5 and 13.23
Raw Tumor Measurements (Anti-PD-1 (200 ug)+SYN-115 (100 mg/kg), Day 0): 8.68 and 10.56 and 9.92 and 14.82 and 17.2 and 12.8
Raw Tumor Measurements (Anti-PD-1 (200 ug)+SYN-115 (100 mg/kg), Day 43): 153
